Data on one substance can be found in publication doi:10.1101/2022.10.27.514000.

In the assay the target is T1, Arabidopsis thaliana Exo70B1 protein (AtExo70B1) (Arabidopsis thaliana) (UniProt Q9FGH9).
T1 sequence: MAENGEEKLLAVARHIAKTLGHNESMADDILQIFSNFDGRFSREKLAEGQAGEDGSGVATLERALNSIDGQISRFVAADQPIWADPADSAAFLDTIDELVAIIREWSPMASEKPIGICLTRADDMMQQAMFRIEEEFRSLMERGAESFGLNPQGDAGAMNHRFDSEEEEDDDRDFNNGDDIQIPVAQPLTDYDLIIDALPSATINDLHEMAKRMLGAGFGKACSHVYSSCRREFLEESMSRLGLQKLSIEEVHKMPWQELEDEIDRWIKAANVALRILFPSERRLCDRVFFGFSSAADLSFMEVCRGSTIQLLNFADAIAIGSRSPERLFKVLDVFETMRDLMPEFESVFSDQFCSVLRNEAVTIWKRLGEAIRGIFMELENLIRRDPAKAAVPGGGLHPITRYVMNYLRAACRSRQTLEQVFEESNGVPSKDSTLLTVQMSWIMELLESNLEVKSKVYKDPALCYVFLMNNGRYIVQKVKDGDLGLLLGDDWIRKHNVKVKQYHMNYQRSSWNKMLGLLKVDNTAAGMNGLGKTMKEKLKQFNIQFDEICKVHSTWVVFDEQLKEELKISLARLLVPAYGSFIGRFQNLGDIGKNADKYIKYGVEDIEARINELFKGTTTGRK
The assay is described as follows: circular dichroism. (Circular dichroism is widely used to follow secondary structure.)

No constants are given. Whether binding was seen depends on the method and setting. Binding can be weak; no strength is given.

Turning to “Xanthomonas campestris pv. campestris type three effector XopP (XccXopP)”, the binding result is “binds”.
